# Source: the supplement of paper PMC6411743
# By UniProt entry, the sequences of proteins in these tests, tags left out. Where a name states a change or a piece, a line headed by the entry shows the natural chain unless it says otherwise.
# UniProt P29597: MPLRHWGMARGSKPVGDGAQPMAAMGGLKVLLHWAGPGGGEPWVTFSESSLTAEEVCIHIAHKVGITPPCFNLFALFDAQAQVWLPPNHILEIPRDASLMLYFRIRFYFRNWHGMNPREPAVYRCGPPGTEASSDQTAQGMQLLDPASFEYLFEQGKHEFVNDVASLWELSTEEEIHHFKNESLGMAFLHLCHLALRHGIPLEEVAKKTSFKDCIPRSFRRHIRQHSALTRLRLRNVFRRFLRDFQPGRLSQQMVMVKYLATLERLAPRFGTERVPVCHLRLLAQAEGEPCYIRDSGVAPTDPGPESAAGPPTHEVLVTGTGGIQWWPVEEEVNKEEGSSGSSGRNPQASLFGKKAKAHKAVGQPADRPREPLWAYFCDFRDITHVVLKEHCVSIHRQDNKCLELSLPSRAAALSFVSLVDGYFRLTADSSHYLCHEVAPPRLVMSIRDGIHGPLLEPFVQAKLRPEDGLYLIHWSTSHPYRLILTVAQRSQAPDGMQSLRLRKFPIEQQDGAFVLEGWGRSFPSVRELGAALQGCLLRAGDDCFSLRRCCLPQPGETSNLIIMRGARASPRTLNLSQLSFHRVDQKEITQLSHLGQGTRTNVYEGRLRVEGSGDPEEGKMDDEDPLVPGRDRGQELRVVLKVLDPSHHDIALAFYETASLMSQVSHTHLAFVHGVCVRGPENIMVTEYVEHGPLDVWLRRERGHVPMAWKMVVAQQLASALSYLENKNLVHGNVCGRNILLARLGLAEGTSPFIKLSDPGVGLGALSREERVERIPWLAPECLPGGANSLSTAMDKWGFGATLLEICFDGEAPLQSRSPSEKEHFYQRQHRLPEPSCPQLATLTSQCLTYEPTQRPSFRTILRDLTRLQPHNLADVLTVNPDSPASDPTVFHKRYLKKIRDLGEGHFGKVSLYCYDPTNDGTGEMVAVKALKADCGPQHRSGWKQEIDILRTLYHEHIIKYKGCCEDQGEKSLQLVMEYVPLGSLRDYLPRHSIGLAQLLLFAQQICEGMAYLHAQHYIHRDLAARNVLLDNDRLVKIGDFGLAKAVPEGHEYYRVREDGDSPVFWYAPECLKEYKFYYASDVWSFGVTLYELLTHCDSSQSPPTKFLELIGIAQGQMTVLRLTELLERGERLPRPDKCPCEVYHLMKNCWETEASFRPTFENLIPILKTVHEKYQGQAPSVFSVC
# UniProt O95819: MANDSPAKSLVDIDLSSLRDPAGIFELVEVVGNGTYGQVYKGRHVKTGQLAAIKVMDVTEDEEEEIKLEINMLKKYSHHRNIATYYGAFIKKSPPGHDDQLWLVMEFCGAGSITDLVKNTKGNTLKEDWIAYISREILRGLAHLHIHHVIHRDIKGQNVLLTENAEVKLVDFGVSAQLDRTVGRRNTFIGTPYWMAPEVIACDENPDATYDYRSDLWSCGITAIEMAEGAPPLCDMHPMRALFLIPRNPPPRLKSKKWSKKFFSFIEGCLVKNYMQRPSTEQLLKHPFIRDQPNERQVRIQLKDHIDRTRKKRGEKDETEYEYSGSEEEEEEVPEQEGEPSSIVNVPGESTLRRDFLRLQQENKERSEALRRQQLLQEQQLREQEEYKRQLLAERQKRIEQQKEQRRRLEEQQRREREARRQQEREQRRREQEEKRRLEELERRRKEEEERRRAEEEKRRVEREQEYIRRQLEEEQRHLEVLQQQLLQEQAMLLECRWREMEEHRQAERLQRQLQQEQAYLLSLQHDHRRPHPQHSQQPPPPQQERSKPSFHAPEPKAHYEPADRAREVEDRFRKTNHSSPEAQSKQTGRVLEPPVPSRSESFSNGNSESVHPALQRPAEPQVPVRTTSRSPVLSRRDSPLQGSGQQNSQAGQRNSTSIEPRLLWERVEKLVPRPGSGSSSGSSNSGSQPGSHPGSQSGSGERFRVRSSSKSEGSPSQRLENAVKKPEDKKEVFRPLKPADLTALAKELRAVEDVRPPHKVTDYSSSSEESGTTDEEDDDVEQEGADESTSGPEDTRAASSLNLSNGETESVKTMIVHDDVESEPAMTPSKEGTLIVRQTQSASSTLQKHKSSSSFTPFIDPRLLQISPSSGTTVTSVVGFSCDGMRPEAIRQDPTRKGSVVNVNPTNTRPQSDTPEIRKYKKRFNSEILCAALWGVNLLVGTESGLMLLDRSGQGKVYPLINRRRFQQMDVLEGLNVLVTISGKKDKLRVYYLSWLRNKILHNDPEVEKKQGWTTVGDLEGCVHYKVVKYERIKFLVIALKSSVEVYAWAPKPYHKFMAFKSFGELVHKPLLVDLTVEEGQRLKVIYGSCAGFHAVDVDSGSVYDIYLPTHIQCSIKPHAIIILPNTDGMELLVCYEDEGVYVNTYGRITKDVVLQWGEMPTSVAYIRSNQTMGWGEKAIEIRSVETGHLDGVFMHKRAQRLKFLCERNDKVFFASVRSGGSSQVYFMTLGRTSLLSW
# UniProt Q14493, whole entry, looked up: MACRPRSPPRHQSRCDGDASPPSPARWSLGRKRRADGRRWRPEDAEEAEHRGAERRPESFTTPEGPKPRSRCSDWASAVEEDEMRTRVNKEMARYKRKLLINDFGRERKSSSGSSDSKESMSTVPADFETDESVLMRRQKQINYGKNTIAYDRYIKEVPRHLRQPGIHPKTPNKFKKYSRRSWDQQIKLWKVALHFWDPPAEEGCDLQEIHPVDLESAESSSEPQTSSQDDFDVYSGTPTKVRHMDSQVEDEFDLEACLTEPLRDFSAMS
# UniProt Q9Y4A5, whole entry: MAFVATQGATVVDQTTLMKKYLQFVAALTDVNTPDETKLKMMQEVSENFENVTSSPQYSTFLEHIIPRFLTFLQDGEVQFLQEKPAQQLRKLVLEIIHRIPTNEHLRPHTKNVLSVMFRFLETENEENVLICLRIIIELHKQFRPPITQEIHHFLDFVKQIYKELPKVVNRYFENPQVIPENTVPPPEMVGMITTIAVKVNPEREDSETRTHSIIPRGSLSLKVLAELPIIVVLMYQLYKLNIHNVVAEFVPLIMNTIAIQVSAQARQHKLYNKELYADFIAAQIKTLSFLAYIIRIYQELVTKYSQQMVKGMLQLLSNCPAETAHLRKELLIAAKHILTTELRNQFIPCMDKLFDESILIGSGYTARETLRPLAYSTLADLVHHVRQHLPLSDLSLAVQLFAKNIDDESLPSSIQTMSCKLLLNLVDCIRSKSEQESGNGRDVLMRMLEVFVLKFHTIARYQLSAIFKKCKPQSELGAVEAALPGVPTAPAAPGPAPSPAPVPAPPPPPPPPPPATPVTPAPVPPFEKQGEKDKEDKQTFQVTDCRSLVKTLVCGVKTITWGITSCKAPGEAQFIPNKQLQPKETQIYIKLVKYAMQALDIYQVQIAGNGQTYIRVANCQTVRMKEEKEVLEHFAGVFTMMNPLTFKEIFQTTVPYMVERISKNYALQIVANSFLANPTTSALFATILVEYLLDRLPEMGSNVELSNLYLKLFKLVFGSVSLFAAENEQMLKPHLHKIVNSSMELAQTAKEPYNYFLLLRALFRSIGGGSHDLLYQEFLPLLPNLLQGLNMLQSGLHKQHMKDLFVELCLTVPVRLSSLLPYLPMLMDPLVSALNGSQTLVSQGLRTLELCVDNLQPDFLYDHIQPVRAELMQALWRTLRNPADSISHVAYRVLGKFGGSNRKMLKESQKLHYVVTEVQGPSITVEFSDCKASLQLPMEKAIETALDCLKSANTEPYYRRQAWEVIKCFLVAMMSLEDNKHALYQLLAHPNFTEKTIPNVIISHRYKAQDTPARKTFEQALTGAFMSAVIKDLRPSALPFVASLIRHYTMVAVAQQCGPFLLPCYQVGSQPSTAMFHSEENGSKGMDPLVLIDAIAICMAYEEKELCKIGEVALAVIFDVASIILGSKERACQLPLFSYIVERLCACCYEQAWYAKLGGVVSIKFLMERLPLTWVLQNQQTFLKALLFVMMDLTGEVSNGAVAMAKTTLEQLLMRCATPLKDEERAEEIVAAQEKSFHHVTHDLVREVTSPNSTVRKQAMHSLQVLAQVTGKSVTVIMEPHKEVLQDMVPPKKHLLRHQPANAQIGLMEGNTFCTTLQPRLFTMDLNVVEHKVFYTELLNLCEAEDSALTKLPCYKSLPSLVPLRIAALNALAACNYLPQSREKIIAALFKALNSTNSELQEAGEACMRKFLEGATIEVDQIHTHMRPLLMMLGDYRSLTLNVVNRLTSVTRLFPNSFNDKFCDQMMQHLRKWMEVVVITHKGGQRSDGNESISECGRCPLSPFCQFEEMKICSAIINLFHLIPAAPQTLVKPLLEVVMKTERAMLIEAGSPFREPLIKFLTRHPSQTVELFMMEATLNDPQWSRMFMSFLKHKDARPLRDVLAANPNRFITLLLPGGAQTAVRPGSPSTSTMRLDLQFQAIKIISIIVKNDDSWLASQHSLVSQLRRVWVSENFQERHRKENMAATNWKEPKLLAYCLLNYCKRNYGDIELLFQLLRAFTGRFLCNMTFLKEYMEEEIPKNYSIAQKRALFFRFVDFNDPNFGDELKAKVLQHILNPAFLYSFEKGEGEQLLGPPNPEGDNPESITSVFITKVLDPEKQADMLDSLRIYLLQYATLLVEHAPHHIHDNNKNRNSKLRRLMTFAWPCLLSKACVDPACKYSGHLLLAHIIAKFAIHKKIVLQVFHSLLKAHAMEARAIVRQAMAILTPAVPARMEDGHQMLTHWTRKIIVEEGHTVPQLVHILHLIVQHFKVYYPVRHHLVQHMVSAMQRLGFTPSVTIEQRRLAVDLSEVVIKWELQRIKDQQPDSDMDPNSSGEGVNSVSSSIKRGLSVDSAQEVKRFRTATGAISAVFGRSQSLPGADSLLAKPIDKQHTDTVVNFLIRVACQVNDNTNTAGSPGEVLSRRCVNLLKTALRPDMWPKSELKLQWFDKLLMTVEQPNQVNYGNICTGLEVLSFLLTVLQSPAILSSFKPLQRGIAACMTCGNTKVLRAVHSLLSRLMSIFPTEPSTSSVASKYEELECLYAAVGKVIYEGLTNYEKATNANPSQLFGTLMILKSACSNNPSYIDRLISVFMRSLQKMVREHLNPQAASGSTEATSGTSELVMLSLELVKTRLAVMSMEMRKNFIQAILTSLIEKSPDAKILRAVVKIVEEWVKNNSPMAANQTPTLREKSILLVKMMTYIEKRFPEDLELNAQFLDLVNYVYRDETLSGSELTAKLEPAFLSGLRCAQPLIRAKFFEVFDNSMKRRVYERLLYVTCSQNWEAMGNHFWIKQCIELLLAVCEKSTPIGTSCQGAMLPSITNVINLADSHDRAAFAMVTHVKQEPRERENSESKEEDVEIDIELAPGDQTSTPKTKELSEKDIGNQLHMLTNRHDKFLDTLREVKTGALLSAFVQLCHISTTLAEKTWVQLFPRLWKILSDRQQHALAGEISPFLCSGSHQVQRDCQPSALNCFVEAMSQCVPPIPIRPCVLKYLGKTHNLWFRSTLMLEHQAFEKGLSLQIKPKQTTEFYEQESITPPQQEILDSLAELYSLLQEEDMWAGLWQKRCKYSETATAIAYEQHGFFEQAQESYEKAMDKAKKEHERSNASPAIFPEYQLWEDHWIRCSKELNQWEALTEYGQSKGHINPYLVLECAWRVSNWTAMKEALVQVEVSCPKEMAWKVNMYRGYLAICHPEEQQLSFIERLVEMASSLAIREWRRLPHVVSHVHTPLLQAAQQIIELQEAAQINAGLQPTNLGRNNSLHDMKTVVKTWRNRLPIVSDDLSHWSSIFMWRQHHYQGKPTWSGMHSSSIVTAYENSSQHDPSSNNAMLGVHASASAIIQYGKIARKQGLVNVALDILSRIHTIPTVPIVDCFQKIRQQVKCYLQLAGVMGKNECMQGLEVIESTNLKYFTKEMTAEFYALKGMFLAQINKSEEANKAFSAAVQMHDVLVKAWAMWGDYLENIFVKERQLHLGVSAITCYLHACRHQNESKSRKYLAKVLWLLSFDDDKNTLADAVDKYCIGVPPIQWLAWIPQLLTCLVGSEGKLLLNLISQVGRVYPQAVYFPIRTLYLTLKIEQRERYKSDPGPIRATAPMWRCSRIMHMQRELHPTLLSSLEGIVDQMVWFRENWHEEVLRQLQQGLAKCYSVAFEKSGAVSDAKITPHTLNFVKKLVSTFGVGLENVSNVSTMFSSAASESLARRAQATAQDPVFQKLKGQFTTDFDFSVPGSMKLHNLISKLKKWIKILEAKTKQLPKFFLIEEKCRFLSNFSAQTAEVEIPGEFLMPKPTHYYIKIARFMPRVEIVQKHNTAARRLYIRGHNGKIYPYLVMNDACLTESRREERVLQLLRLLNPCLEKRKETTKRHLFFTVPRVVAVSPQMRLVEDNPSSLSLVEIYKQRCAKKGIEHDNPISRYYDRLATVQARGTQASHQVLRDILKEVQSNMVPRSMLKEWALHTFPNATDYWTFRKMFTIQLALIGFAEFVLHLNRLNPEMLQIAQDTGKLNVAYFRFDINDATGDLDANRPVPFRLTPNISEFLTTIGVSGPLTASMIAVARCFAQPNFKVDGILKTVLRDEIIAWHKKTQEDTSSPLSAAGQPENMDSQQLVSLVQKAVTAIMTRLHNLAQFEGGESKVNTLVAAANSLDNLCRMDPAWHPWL
# ± gives the standard deviation of the averaged measurements. This is a selection; strong and weak results do not stand in their true shares. Most values lie at the level of the controls, where differences are scatter.
# Compound: Nc1ncnc2c1ncn2[C@@H]1O[C@H](COP(=O)(O)OP(=O)(O)OP(=O)(O)O)[C@@H](O)[C@H]1O [adenosine triphosphate]
# Assay: NP40-soluble protein abundance relative to vehicle (solubility fold change) (ratio); higher = more soluble protein in presence of ATP
# Procedure, shortened: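 Jurkat crude lysate prepared with a Dounce homogeniser was treated at eight concentrations spanning 0.1 to 10 mM, 10 min at room temperature then 3 min at 37 °C. Solubilisation with 0.8% NP40 and benzonase and ultracentrifugation preceded TMT labelling of the supernatant for LC-MS/MS. Fold change against the detergent-processed vehicle was determined per replicate from vsn-normalised intensities, across three independent experiments.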
Target,NP40-soluble protein abundance (concentration: 0.1mM),NP40-soluble protein abundance (concentration: 0.5mM)
E9PDP5 and related entries (UniProt Q8IWZ3),0.996 ± 0.018,0.967 ± 0.024
E9PC69 and related entries (UniProt Q7KZI7),1.1 ± 0.061,1.29 ± 0.15
E7EMW7 and related entries (UniProt O95071),1.02 ± 0.068,1.09 ± 0.088
E9PM19 and related entries (UniProt P29597),1.2 ± 0.18,1.25 ± 0.057
E9PBS1 and related entries (UniProt P22234),1.01 ± 0.082,1 ± 0.048
E9PN89 and related entries (UniProt P11142),0.988 ± 0.036,1.02 ± 0.047
UniProt F5H5P2,0.99 ± 0.027,1 ± 0.016
F8W6G1 and related entries (UniProt Q9UHY1),0.9933 ± 0.0026,1 ± 0.029
E9PE19 and related entries (UniProt Q12830),0.985 ± 0.02,1.01 ± 0.079
E9PHV5 and related entries (UniProt P28290),1.03 ± 0.099,1.08 ± 0.13
E9PS17 and related entries (UniProt Q96KG9),1.01 ± 0.03,0.991 ± 0.071
F5GWD3 and related entries (UniProt Q13889),1.03 ± 0.022,1.04 ± 0.064
F5H0F9 and related entries (UniProt Q9UJX4),1.01 ± 0.022,1.05 ± 0.03
E9PRF4 and related entries (UniProt Q15047),1.06 ± 0.025,1.02 ± 0.076
E9PS74 and related entries (UniProt Q8NBI5),0.995 ± 0.019,1.04 ± 0.028
E7EN19 and related entries (UniProt O95819),1.03 ± 0.019,1.02 ± 0.034
E9PI54 and related entries (UniProt Q06609),1.06 ± 0.026,1.09 ± 0.072
E7ET07 and related entries (UniProt Q9NXR8),1.09 ± 0.15,1.18 ± 0.12
E7EVA8 and related entries (UniProt Q9BY41),1.05 ± 0.08,1.07 ± 0.14
E7EPJ9 and related entries (UniProt P05120),0.927 ± 0.025,0.852 ± 0.014

Target,NP40-soluble protein abundance (concentration: 0.1mM),NP40-soluble protein abundance (concentration: 0.5mM)
E7EQN5 and related entries (UniProt P98171),1.02 ± 0.012,1.02 ± 0.033
G3V3H3 and related entries (UniProt Q07866),0.962 ± 0.051,1 ± 0.071
E5RIH5 and related entries (UniProt Q6NXR4),0.958 ± 0.024,0.96 ± 0.045
G3V3M6 and related entries (UniProt P27695),0.971 ± 0.052,1.01 ± 0.06
G5E994 and related entries (UniProt Q5VW38),1.07 ± 0.081,0.975 ± 0.015
E7EVA0 and related entries (UniProt P27816),0.963 ± 0.021,0.974 ± 0.044
G3V1V0 and related entries (UniProt P60660),0.863 ± 0.13,0.863 ± 0.14
E7ET49 and related entries (UniProt Q8NCG7),1.04 ± 0.055,0.977 ± 0.081
F8W8D3 and related entries (UniProt Q14493),1.01 ± 0.021,1.03 ± 0.056
G3V1S4 and related entries (UniProt Q9Y324),1.02 ± 0.14,1.03 ± 0.12
E9PL24 and related entries (UniProt Q5VU43),0.999 ± 0.021,0.962 ± 0.06
F8VSB6 and related entries (UniProt Q9H4P4),0.96 ± 0.079,0.914 ± 0.039
E9PJD7 (UniProt P0DTL6),1.07 ± 0.066,1.06 ± 0.1
F2Z2U4 and related entries (UniProt Q9Y4A5),1.02 ± 0.013,1.03 ± 0.014
E9PK67 and related entries (UniProt Q53GL7),1.03 ± 0.016,1 ± 0.038
F8VU39 and related entries (UniProt Q9UIF9),1.03 ± 0.095,1.1 ± 0.16
E9PFW2 and related entries (UniProt O00462),1.07 ± 0.083,1.03 ± 0.043
E9PKF3 and related entries (UniProt P24752),0.988 ± 0.022,1.01 ± 0.053
UniProt G3V599,0.971 ± 0.0096,0.969 ± 0.022

# Whole records, quoted from the list. Values in the order: NP40-soluble protein abundance (concentration: 0.1mM)	NP40-soluble protein abundance (concentration: 0.5mM)
# G3V1S4 and related entries (UniProt Q9Y324) is listed as 1.02 ± 0.14	1.03 ± 0.12
# F8W8D3 and related entries (UniProt Q14493) is listed as 1.01 ± 0.021	1.03 ± 0.056
